Results on 4 molecules are retold here after article doi:10.1101/2020.06.18.159293.

Protein sequences, listed by entry. Tags and fused reporters are not part of them. Residues count along the entry.
UniProt Q96C45, whole entry: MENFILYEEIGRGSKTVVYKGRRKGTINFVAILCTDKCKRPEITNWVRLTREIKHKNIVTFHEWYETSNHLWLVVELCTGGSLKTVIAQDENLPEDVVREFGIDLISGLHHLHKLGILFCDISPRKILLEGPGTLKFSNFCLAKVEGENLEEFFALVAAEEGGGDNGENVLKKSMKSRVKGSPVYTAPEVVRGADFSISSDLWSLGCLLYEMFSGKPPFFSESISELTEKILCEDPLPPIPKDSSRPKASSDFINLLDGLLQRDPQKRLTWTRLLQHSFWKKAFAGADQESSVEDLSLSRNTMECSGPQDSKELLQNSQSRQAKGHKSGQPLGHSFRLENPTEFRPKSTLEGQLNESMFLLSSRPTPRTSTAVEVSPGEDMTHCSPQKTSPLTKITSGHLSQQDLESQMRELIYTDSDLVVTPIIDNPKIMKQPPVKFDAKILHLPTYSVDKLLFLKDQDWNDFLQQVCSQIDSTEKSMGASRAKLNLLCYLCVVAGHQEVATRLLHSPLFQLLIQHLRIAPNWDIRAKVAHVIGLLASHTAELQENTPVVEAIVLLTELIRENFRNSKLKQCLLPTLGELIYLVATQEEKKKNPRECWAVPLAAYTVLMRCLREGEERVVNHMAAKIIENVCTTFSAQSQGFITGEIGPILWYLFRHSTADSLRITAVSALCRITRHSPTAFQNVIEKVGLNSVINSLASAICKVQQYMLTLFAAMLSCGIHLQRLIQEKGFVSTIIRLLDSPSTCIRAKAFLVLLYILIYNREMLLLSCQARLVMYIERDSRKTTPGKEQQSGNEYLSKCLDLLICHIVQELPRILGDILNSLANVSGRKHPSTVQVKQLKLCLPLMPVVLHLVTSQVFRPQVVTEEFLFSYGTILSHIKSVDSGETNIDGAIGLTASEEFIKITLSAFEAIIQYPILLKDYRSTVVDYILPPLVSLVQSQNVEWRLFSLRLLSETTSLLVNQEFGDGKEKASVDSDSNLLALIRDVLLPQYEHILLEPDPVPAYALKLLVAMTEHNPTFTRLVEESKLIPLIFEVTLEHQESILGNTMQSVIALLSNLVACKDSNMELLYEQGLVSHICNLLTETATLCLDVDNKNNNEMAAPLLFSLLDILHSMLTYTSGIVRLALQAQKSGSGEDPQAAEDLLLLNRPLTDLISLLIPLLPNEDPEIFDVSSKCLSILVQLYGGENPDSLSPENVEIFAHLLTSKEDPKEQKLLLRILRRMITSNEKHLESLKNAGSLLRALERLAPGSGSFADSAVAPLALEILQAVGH
UniProt Q96C45, 1-288: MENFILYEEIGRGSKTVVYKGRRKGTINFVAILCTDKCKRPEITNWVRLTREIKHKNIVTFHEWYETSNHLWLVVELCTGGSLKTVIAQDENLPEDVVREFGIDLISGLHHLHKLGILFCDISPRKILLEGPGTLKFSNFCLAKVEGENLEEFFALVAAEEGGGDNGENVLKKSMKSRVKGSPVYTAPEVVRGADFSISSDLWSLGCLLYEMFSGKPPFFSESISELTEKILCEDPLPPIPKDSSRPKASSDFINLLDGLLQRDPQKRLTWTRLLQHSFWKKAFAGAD
UniProt O75116, whole entry: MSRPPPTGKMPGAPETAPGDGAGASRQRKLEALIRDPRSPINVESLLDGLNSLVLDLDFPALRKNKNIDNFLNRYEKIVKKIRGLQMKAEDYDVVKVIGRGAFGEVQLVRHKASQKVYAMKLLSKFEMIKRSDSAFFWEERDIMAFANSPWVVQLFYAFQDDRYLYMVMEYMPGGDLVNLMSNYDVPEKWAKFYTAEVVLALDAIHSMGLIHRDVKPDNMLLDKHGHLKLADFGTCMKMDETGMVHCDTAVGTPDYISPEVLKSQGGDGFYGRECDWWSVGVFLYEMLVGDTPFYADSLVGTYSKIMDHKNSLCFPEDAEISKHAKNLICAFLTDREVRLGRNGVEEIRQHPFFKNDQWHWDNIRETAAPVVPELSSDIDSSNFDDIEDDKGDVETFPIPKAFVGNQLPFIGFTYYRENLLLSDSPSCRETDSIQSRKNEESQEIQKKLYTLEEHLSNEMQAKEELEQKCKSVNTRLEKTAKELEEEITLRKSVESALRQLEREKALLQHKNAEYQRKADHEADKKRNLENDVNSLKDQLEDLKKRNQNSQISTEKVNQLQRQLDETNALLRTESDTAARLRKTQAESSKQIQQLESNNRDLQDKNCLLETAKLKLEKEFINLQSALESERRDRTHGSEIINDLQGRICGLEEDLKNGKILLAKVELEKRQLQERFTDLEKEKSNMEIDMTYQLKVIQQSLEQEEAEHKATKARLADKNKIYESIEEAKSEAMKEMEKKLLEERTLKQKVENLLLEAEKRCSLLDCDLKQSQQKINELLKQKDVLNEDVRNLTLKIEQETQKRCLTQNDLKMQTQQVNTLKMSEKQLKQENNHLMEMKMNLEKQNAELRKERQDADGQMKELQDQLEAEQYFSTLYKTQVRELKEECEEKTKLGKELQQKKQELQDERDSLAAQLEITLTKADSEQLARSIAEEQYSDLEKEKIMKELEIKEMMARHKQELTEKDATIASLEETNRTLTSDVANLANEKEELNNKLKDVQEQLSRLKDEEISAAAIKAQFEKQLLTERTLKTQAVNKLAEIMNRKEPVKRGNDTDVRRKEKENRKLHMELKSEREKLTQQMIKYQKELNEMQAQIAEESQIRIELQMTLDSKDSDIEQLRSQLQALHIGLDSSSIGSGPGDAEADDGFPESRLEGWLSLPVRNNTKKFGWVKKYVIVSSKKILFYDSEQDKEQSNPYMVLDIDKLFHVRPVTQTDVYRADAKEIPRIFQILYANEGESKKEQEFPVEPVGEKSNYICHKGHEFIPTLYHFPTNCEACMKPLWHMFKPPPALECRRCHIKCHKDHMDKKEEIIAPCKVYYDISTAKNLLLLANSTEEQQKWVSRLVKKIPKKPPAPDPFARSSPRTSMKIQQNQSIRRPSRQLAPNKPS
UniProt Q5T5Y3, whole entry: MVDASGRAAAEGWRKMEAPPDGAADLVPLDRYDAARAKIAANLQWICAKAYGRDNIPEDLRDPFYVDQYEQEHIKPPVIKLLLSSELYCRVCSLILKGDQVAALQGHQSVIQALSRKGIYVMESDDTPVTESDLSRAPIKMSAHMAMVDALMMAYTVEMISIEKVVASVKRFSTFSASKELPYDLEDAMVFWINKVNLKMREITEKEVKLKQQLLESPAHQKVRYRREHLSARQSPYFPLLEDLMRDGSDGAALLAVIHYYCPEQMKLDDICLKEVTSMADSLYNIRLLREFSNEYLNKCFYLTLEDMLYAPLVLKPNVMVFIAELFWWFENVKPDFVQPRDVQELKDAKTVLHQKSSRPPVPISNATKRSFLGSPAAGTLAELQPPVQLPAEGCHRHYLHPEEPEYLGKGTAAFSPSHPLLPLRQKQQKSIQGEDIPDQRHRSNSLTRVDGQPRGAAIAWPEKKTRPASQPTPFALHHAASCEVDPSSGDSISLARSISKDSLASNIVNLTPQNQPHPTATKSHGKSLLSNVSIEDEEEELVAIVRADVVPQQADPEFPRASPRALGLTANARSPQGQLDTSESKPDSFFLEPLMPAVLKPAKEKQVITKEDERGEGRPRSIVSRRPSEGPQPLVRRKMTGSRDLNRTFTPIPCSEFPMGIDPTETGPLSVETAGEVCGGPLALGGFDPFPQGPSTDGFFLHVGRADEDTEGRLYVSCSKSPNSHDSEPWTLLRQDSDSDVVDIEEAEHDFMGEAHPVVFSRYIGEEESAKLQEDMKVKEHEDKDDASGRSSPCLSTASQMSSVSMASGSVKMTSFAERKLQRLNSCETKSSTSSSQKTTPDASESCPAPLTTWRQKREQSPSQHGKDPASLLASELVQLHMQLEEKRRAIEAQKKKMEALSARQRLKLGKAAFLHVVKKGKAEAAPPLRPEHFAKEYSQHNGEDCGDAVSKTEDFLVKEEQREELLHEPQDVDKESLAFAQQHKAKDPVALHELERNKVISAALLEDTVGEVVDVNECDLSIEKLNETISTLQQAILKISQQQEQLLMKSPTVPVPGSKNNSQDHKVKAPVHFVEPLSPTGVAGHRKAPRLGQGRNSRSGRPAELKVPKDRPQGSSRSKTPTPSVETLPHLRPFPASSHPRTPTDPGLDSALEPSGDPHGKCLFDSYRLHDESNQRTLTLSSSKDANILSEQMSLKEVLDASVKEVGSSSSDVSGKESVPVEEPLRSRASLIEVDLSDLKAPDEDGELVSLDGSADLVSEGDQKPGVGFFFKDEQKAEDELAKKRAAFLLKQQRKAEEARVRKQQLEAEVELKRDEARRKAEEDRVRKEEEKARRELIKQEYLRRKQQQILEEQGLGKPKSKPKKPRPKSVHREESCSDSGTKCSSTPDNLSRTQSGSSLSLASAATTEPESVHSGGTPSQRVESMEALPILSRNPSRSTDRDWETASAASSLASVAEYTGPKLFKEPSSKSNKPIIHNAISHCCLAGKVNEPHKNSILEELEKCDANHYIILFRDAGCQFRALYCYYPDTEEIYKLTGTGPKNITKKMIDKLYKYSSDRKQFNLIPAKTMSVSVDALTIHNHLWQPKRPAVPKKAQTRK

These are yes or no findings as the source states them, for the method shown. For some of these results: Binding seen in cells or lysates may run through a third protein. Some entries that bind do so weakly or less than the wild type.

For assay [1], the target named is C-terminally FLAG-tagged full-length ULK4 (ULK4-BirA*Flag) (human) (UniProt Q96C45). Nature of the assay: co-IP.
Assay [2] deals with N-terminally FLAG-tagged ULK4 (FlagBirA*-ULK4) (human) (UniProt Q96C45). Nature of the assay: co-IP.
The target in assay [3] is C-terminally FLAG-tagged full-length ULK4 (ULK4-BirA*Flag) (human) (UniProt Q96C45). Nature of the assay: co-sedimentation.
Assay [4] concerns the target ULK4 pseudokinase domain residues 1-288 (ULK4PD) (human) (UniProt Q96C45). Nature of the assay: SEC. Background: In gel filtration, larger molecules generally elute earlier.

For the molecule “Rho associated coiled-coil containing protein kinase 2 (ROCK2) (from UniProt O75116 1-1388)”, the binding result in assay [1], in assay [2] and in assay [3] was “binds” each time.

For “ULK4 pseudokinase domain residues 1-288 (ULK4PD) (from UniProt Q96C45 1-288) (domain or fragment)”, the binding entry in assay [4] is reported as “no binding”.

As for “calmodulin regulated spectrin associated protein 1 (CAMSAP1) (from UniProt Q5T5Y3 1-1602)”, the binding entry in assay [1], in assay [2] and in assay [3] was “binds” in each case.

B1: PTPN14 (protein tyrosine phosphatase, non-receptor type 14) (protein, UniProt Q15678 1-1187)
chain: MPFGLKLRRTRRYNVLSKNCFVTRIRLLDSNVIECTLSVESTGQECLEAVAQRLELRETHYFGLWFLSKSQQARWVELEKPLKKHLDKFANEPLLFFGVMFYVPNVSWLQQEATRYQYYLQVKKDVLEGRLRCTLDQVIRLAGLAVQADFGDYNQFDSQDFLREYVLFPMDLALEEAVLEELTQKVAQEHKAHSGILPAEAELMYINEVERLDGFGQEIFPVKDNHGNCVHLGIFFMGIFVRNRIGRQAVIYRWNDMGNITHNKSTILVELINKEETALFHTDDIENAKYISRLFATRHKFYKQNKICTEQSNSPPPIRRQPTWSRSSLPRQQPYILPPVHVQCGEHYSETHTSQDSIFHGNEEALYCNSHNSLDLNYLNGTVTNGSVCSVHSVNSLNCSQSFIQASPVSSNLSIPGSDIMRADYIPSHRHSAIIVPSYRPTPDYETVMRQMKRGILHTDSQSQSLRNLNIINTHAYNQPEDLVYSQPEMRERHPYTVPYGPQGVYSNKLVSPSDQRNPKNNVVPSKPGASAISHTVSTPELANMQLQGSHNYSTAHMLKNYLFRPPPPYPRPRPATSTPDLASHRHKYVSGSSPDLVTRKVQLSVKTFQEDSSPVVHQSLQEVSEPLTATKHHGTVNKRHSLEVMNSMVRGMEAMTLKSLHLPMARRNTLREQGPPEEGSGSHEVPQLPQYHHKKTFSDATMLIHSSESEEEEEEAPESVPQIPMLREKMEYSAQLQAALARIPNKPPPEYPGPRKSVSNGALRQDQASLPPAMARARVLRHGPAKAISMSRTDPPAVNGASLGPSISEPDLTSVKERVKKEPVKERPVSEMFSLEDSIIEREMMIRNLEKQKMAGLEAQKRPLMLAALNGLSVARVSGREENRVDATRVPMDERFRTLKKKLEEGMVFTEYEQIPKKKANGIFSTAALPENAERSRIREVVPYEENRVELIPTKENNTGYINASHIKVVVGGAEWHYIATQGPLPHTCHDFWQMVWEQGVNVIAMVTAEEEGGRTKSHRYWPKLGSKHSSATYGKFKVTTKFRTDSVCYATTGLKVKHLLSGQERTVWHLQYTDWPDHGCPEDVQGFLSYLEEIQSVRRHTNSMLEGTKNRHPPIVVHCSAGVGRTGVLILSELMIYCLEHNEKVEVPMMLRLLREQRMFMIQTIAQYKFVYQVLIQFLQNSRLI
In the case of B1, the binding result in assay [1], in assay [2] and in assay [3] was “binds” each time.
